Results on nine substances are retold here after patent publication US12060400B2, “Peptides for use in immunotherapy against cancers” (Immatics Biotechnologies GmbH, priority 2018, dated 2024).

For some assays here: Expression grades refer to the transcript from which the peptide derives; gene names, where given, were looked up from the sequence.

The subject of data set [1] is HLA molecules of primary tumor and normal tissue samples (cancer entities). The data set can be described thus: Identification and label-free LC-MS quantitation of HLA-presented tumor-associated peptides on tissue samples. More on the design: species or system human. The conditions noted are these: cancer entities on whose tumor tissue samples the HLA-presented peptide was found (LC-MS); abbreviations in the footnotes of Table 8a.

Data set [2] concerns source gene exon mRNA in tumor and normal tissue samples. The data set can be described thus: Expression profiling (RNAseq) of genes encoding the peptides, tumor versus normal tissues. Also noted: species or system human. The conditions noted are these: RNAseq, Table 9a; for Exon Expression in tumor types vs normal tissue panel: very highly over-expressed (+++): tumor types in which the peptide's exon is very highly over-expressed (+++) vs panel of normal tissues; for Exon Expression in tumor types vs normal tissue panel: highly over-expressed (++): tumor types in which the peptide's exon is highly over-expressed (++) vs panel of normal tissues; for Exon Expression in tumor types vs normal tissue panel: over-expressed (+): tumor types in which the peptide's exon is over-expressed (+) vs panel of normal tissues.

As for “19: peptide found in CYP4Z1 (gene looked up) (ILLCMSLLLF; listed as Homo sapiens) [compound 19]”, the “Peptide Presentation on cancer entities” value in data set [1] is recorded as “NSCLCadeno, NSCLCsquam, PRCA”. In data set [2], the “Exon Expression in tumor types vs normal tissue panel: very highly over-expressed (+++)” value is given as “BRCA”.

With “66: peptide found in PLA2G2D (gene looked up) (IYKDYYRYNF; listed as Homo sapiens) [compound 66]”, the “Peptide Presentation on cancer entities” value in data set [1] is recorded as “NHL”. Also, in data set [2], the “Exon Expression in tumor types vs normal tissue panel: highly over-expressed (++)” value was “NHL” and the “Exon Expression in tumor types vs normal tissue panel: over-expressed (+)” value is “MEL”.

Take “55: peptide found in CDK6 (gene looked up) (AVLRHLETF; listed as Homo sapiens) [compound 55]”: the “Peptide Presentation on cancer entities” value in data set [1] is “CCC”. Also, in data set [2], the “Exon Expression in tumor types vs normal tissue panel: highly over-expressed (++)” value was “AML” and the “Exon Expression in tumor types vs normal tissue panel: over-expressed (+)” value is “GBM, GC, OSCAR”.

With “301: peptide found in CXCR3 (gene looked up) (RTALSSTDTF; listed as Homo sapiens) [compound 301]”, the “Peptide Presentation on cancer entities” value in data set [1] is given as “NHL”. In data set [2], the “Exon Expression in tumor types vs normal tissue panel: highly over-expressed (++)” value is given as “CLL”.

For the substance “94: peptide found in MMP12 (gene looked up) (THSGGTNLF; listed as Homo sapiens) [compound 94]”, the “Peptide Presentation on cancer entities” value in data set [1] was “NSCLCadeno”. Moreover, in data set [2], the “Exon Expression in tumor types vs normal tissue panel: highly over-expressed (++)” value is “CCC, CRC, GC, MEL, NHL, NSCLCadeno, OC, OSCAR, PACA, SCLC, UBC, UEC”; the “Exon Expression in tumor types vs normal tissue panel: over-expressed (+)” value is given as “HCC, RCC”; the “Exon Expression in tumor types vs normal tissue panel: very highly over-expressed (+++)” value was “GBC, HNSCC, NSCLCother, NSCLCsquam”.

In the case of “183: peptide found in FLT3 (gene looked up) (YQVAKGMEF; listed as Homo sapiens) [compound 183]”, in data set [1], the “Peptide Presentation on cancer entities” value is recorded as “NSCLCadeno”. In addition, the “Exon Expression in tumor types vs normal tissue panel: highly over-expressed (++)” value in data set [2] is “AML”.

For the substance “247: peptide found in MPL (gene looked up) (VHSYLGSPF; listed as Homo sapiens) [compound 247]”, in data set [1], the “Peptide Presentation on cancer entities” value was “RCC”. For the same substance, the “Exon Expression in tumor types vs normal tissue panel: highly over-expressed (++)” value in data set [2] was “AML”.

Consider “325: peptide found in LPAR3 (gene looked up) (IFMGAVPTL; listed as Homo sapiens) [compound 325]”, for which, in data set [1], the “Peptide Presentation on cancer entities” value was “HNSCC, NSCLCadeno, OC, OSCAR”. Besides, in data set [2], the “Exon Expression in tumor types vs normal tissue panel: over-expressed (+)” value was “HNSCC, OC, OSCAR, PRCA”.

In the case of “80: peptide found in CDK6 (gene looked up) (SYATPVDLW; listed as Homo sapiens) [compound 80]”, in data set [1], the “Peptide Presentation on cancer entities” value was “AML, CCC, MEL, NSCLCsquam”. Also, in data set [2], the “Exon Expression in tumor types vs normal tissue panel: highly over-expressed (++)” value is on record as “AML” and the “Exon Expression in tumor types vs normal tissue panel: over-expressed (+)” value is “GBM, GC”.
